Record: PubChem BioAssay AID1159578 (Peter MacCallum Cancer Centre, 2015)
The whole screen tested about 18,000 reagents; below is a random part of them. Over the whole deposit, about 1,030 (5.7%) are marked active. 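Inactive calls also include pools with fewer than 3300 nuclei, whose migration was not assessed.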 Raw values are not corrected between plates. Unmarked entries are inactive. No sequences are given here.

Assay: 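Genome-wide hunt for genes controlling movement of lymphatic endothelial cells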 (primary screen)
Cell system: human lymphatic endothelial cells
Reagents: siRNA pool against human genes, 40 nM
Duration: 48 h after transfection
Measured: 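High-content imaging of dye-stained cells in a scratch assay measures filled wound area and nuclei per well; duplicate means given as ratio to mock and robust z-score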
Scale: migration robust z-score: higher = faster migration into the scratch; migration relative to mock: higher = more scratch area covered than mock; nuclei per well: higher = more cells in the well
Active means: 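Pools averaging fewer than 3300 nuclei are never called; remaining pools count as changed when migration robust z lies outside -2 to 2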
Meaning of the calls: active = migration changed; inactive = no migration change, or too few cells

gene symbol	migration robust z-score	migration class with cell-count check	migration relative to mock	nuclei per well, duplicate mean
MRPL11 (GeneID 65003)	-2.63 (active)	migration z below -2; enough cells	0.2	4024
NSUN5 (GeneID 55695)	0.13	migration z between -2 and 2; enough cells	0.83	5744
EIF2B3 (GeneID 8891)	-0.02	migration z between -2 and 2; enough cells	0.8	5962
MSMP (GeneID 692094)	0.22	migration z between -2 and 2; enough cells	0.94	5133
SCAND3 (GeneID 114821)	0.36	migration z between -2 and 2; enough cells	0.98	5266
USP51 (GeneID 158880)	-0.02	migration z between -2 and 2; enough cells	0.8	6114
TTC21B (GeneID 79809)	1.2	migration z between -2 and 2; enough cells	1.2	6357
KAT2B (GeneID 8850)	1.12	migration z between -2 and 2; enough cells	1.02	5790
SPDYA (GeneID 245711)	-2.45 (active)	migration z below -2; enough cells	0.25	5488
HDC (GeneID 3067)	1.06	migration z between -2 and 2; enough cells	1.01	6263
ACP1 (GeneID 52)	-0.76	migration z between -2 and 2; enough cells	0.66	4227
SLC22A11 (GeneID 55867)	-0.46	migration z between -2 and 2; enough cells	0.72	4700
CHPF2 (GeneID 54480)	-1.66	migration z between -2 and 2; enough cells	0.48	5982
CENATAC (GeneID 338657)	0.26	migration z between -2 and 2; enough cells	0.96	5207
ZNF329 (GeneID 79673)	0	migration z between -2 and 2; enough cells	0.88	5458
BAALC (GeneID 79870)	-0.52	migration z between -2 and 2; enough cells	0.75	5754
DMAC1 (GeneID 90871)	0.64	migration z between -2 and 2; enough cells	1.05	5702
PHACTR3 (GeneID 116154)	0.43	migration z between -2 and 2; enough cells	1	5689
TEDC2 (GeneID 80178)	-4.21	under 3300 nuclei; migration not judged	-0.18	2342
ZNF609 (GeneID 23060)	-2.04 (active)	migration z below -2; enough cells	0.35	4442
AMACR (GeneID 23600)	1.29	migration z between -2 and 2; enough cells	1.05	5532
NQO1 (GeneID 1728)	-1.79	migration z between -2 and 2; enough cells	0.46	4766
ZNF627 (GeneID 199692)	2.24 (active)	migration z above 2; enough cells	1.46	5800
RTN4IP1 (GeneID 84816)	-3.4	under 3300 nuclei; migration not judged	0.15	2676
OR10Z1 (GeneID 128368)	-0.73	migration z between -2 and 2; enough cells	0.7	5454
MAT2B (GeneID 27430)	0.42	migration z between -2 and 2; enough cells	0.88	6612
FABP2 (GeneID 2169)	0.65	migration z between -2 and 2; enough cells	0.93	5362
SAMD14 (GeneID 201191)	1.17	migration z between -2 and 2; enough cells	1.19	6680
VPS33B (GeneID 26276)	-1.08	migration z between -2 and 2; enough cells	0.6	5179
MECR (GeneID 51102)	0	migration z between -2 and 2; enough cells	0.88	7377
BTBD16 (GeneID 118663)	1.01	migration z between -2 and 2; enough cells	1.15	5989
SECISBP2L (GeneID 9728)	0.37	migration z between -2 and 2; enough cells	0.99	4594
WNT6 (GeneID 7475)	-1.5	migration z between -2 and 2; enough cells	0.5	5922
CLRN1 (GeneID 7401)	1.86	migration z between -2 and 2; enough cells	1.36	5574
CACNA2D3 (GeneID 55799)	-0.57	migration z between -2 and 2; enough cells	0.7	5610
MIER1 (GeneID 57708)	-0.24	migration z between -2 and 2; enough cells	0.82	6540
NBPF15 (GeneID 284565)	1.6	migration z between -2 and 2; enough cells	1.3	6162
TRIML1 (GeneID 339976)	-2.28 (active)	migration z below -2; enough cells	0.36	3554
SLC22A24 (GeneID 283238)	-3 (active)	migration z below -2; enough cells	0.1	3778
PRR34 (GeneID 55267)	-1.93	migration z between -2 and 2; enough cells	0.38	4860
SLC60A1 (GeneID 148808)	0.45	migration z between -2 and 2; enough cells	1	5088
PNP (GeneID 4860)	1.35	migration z between -2 and 2; enough cells	1.06	6480
EHMT2 (GeneID 10919)	0.2	migration z between -2 and 2; enough cells	0.84	5524
MBTD1 (GeneID 54799)	-0.24	migration z between -2 and 2; enough cells	0.82	5735
KIF1B (GeneID 23095)	-0.49	migration z between -2 and 2; enough cells	0.71	5170
MAGEA10 (GeneID 4109)	-2.92 (active)	migration z below -2; enough cells	0.12	5178
ATAD1 (GeneID 84896)	0.1	migration z between -2 and 2; enough cells	0.82	5766
SFT2D2 (GeneID 375035)	-0.06	migration z between -2 and 2; enough cells	0.87	4488
TUBB4A (GeneID 10382)	-2.28	under 3300 nuclei; migration not judged	0.29	3208
ACTG1 (GeneID 71)	0.1	migration z between -2 and 2; enough cells	0.91	4932
SIN3B (GeneID 23309)	0.67	migration z between -2 and 2; enough cells	1.05	4806
RAD1 (GeneID 5810)	0.96	migration z between -2 and 2; enough cells	0.99	6867
YEATS4 (GeneID 8089)	0.1	under 3300 nuclei; migration not judged	0.82	2929
PNPLA4 (GeneID 8228)	0.18	migration z between -2 and 2; enough cells	0.84	6048
ZNF582 (GeneID 147948)	0.06	migration z between -2 and 2; enough cells	0.9	5170
ZNF230 (GeneID 7773)	1.38	migration z between -2 and 2; enough cells	1.24	6487
BDP1 (GeneID 55814)	-0.05	migration z between -2 and 2; enough cells	0.8	5706

An excerpt from the list above:
gene symbol	migration robust z-score	migration class with cell-count check	migration relative to mock	nuclei per well, duplicate mean
SPDYA (GeneID 245711)	-2.45 (active)	migration z below -2; enough cells	0.25	5488
HDC (GeneID 3067)	1.06	migration z between -2 and 2; enough cells	1.01	6263
ACP1 (GeneID 52)	-0.76	migration z between -2 and 2; enough cells	0.66	4227
SLC22A11 (GeneID 55867)	-0.46	migration z between -2 and 2; enough cells	0.72	4700
CHPF2 (GeneID 54480)	-1.66	migration z between -2 and 2; enough cells	0.48	5982
CENATAC (GeneID 338657)	0.26	migration z between -2 and 2; enough cells	0.96	5207
ZNF329 (GeneID 79673)	0	migration z between -2 and 2; enough cells	0.88	5458
